From article PMC3459938
The exact form of at least one protein or probe is not confirmed.

Target: WW2-3-4-p53wt (Nedd4 WW2-3-4 fused to human p53) (Homo sapiens) (UniProt P04637)
Experiment: EMSA
Conditions: recombinant protein, protein details: His tag, Nedd4 WW2-3-4 fusion, label: biotin (biotin-dUTP labelling of annealed probe)

“AATGTCCGGGCATGTCCGGGCATGTCCGGGCATGT / AATCATGCCCGGACATGCCCGGACATGCCCGGACA [p53 sequence-specific DNA probe]”: binds (NVoy added, binding greatly improved); binds (with Pt-Dd).
